Results are given in words; binding and its absence hold for the method and conditions named. Some entries that bind do so weakly or less than the wild type. Where a sequence is shown, tags or fusion partners need not be part of it.
Tests used:
[1] = biological target: T1, Aep1p fused with the DNA binding domain of GAL4 (pAS2ΔΔ-AEP1) (S. cerevisiae) (UniProt P32493); assay: two-hybrid; Y190 yeast strain, Gal4 AD fusion (pACT2) and Gal4 DNA-binding domain fusion (pAS2ΔΔ); HIS3 reporter, growth on SC-His medium with 2 mM 3-AT, ten-fold dilutions
T1 sequence: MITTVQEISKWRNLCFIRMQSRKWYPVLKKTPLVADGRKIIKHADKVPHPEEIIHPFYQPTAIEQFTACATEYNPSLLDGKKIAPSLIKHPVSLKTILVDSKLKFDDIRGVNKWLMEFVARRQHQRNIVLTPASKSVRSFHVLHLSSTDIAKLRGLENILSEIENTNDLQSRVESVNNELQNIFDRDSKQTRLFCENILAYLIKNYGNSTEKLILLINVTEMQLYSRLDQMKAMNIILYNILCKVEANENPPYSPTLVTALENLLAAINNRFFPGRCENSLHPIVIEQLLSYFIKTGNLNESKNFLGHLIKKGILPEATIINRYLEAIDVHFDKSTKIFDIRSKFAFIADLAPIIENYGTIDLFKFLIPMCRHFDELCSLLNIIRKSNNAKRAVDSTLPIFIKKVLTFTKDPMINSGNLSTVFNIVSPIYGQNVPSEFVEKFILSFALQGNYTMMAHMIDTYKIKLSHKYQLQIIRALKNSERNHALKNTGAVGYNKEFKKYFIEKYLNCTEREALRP

[2] = biological target: T2, Pet111p fused with the DNA binding domain of GAL4 (pAS2ΔΔ-PET111) (S. cerevisiae) (UniProt P08468); assay: as above
T2 sequence: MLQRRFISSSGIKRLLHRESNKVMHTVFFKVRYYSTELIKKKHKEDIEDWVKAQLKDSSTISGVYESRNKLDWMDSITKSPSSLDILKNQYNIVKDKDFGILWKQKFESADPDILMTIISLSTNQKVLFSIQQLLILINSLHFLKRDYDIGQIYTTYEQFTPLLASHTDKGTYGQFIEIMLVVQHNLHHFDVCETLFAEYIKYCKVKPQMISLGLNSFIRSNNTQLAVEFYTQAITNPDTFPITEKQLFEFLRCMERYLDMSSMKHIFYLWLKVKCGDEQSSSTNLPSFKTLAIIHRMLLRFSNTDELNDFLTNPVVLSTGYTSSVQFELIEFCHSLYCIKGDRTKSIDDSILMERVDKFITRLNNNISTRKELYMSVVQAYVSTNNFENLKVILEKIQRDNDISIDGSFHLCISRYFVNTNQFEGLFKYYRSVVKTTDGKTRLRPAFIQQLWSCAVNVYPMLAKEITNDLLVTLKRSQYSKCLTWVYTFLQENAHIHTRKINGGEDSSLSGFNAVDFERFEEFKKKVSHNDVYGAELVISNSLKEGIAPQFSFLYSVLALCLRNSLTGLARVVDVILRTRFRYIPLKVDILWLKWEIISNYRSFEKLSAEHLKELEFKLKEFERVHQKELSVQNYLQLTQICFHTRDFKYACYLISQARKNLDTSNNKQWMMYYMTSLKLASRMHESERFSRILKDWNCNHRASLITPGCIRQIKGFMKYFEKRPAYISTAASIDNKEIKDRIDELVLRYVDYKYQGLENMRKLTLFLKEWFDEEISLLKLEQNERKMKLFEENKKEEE

B1: Aim23p fused with the activation domain of the GAL4 transcription factor (pACT2-AIM23) (protein, UniProt P47015 1-356)
chain: MLKVPLSDVLSQKMLFLKSFRYFHCTKYFSRDNASSTTDIFRNAMKRKRELANLKEQSHGNVARNAAFPKEYIKRPKQVPRNATNRKKILITWSTGTDRAKEAANSVVSEIFKKNHKGNIKVVDPTTHRIEASNIRYFAKGIDLDKVGLSIVNVEQIDNENQIPLVKIVESRVALKKYSDFLAKKKEKELMELGVLNKSYKNLVTDKKEDNLKHIKISWQIESDDLKRQKAHEIVSLLKKGNKVTLYLDDKNNINSNNWLENFEELDRSQKGEPPRLPESVFQKRAAVLETLKEIVSEYANDPVLLGNMNSKMIMKLIPKDVKPQNNDKRALKELRKKERQEKLQKRIQRKKMNEM
binding [1]: no binding | binding [2]: binds

— paper PMC7279496
